Experimental data from the supplement of paper PMC10849652.
Some of the results follow.

Chains of the proteins cited; added tags and fusions are not shown. Lines headed by an entry give the natural chain unless they say otherwise; changes in a name come on top.
UniProt Q9H845: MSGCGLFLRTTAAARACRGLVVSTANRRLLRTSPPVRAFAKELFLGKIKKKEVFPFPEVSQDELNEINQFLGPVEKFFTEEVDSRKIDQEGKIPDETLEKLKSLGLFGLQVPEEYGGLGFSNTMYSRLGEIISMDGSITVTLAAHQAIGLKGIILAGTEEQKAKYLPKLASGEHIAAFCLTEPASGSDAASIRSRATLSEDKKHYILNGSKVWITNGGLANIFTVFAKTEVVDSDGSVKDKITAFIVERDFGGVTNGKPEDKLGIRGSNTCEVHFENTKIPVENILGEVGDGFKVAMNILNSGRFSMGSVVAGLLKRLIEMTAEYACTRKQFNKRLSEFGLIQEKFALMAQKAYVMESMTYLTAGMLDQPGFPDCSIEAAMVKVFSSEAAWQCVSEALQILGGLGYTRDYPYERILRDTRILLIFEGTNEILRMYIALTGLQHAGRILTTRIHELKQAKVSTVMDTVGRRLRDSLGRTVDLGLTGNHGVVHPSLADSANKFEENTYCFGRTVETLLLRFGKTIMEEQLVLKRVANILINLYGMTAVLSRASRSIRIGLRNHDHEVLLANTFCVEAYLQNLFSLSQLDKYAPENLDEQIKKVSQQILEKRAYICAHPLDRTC
UniProt Q9NRK6: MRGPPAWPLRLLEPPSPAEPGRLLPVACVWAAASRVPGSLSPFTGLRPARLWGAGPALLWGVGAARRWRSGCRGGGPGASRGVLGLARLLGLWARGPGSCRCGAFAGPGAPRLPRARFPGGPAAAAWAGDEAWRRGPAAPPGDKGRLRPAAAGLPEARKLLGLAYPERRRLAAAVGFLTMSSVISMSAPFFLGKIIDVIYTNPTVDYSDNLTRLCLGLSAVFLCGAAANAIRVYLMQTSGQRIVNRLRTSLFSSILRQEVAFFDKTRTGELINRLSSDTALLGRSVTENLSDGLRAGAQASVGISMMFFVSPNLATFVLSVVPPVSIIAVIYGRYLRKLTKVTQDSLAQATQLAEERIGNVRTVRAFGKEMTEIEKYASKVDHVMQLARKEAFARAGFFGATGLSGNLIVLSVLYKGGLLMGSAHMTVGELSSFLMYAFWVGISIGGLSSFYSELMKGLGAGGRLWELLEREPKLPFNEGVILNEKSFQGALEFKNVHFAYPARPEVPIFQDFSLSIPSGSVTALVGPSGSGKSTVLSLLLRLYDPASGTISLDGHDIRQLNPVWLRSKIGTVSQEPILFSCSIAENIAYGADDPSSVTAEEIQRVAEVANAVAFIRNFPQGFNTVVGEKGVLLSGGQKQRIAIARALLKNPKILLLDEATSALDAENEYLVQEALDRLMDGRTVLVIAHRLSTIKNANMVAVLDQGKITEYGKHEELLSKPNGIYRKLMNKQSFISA
UniProt Q9NRN7: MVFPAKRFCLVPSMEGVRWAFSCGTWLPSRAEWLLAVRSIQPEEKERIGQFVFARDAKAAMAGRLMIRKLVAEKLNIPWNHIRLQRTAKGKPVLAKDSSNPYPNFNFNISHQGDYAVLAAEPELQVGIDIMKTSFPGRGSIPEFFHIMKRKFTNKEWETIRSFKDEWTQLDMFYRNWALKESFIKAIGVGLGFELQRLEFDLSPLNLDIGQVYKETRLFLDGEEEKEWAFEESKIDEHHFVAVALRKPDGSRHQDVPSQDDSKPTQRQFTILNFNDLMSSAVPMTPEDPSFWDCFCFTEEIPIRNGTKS
UniProt Q9ULW3: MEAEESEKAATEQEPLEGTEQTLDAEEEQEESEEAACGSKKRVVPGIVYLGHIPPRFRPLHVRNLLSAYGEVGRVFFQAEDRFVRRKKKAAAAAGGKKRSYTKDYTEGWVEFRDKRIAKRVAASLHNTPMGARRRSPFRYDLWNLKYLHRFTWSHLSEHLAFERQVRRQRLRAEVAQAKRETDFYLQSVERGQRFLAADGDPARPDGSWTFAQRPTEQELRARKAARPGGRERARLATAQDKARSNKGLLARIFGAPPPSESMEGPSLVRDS
UniProt Q8NE71: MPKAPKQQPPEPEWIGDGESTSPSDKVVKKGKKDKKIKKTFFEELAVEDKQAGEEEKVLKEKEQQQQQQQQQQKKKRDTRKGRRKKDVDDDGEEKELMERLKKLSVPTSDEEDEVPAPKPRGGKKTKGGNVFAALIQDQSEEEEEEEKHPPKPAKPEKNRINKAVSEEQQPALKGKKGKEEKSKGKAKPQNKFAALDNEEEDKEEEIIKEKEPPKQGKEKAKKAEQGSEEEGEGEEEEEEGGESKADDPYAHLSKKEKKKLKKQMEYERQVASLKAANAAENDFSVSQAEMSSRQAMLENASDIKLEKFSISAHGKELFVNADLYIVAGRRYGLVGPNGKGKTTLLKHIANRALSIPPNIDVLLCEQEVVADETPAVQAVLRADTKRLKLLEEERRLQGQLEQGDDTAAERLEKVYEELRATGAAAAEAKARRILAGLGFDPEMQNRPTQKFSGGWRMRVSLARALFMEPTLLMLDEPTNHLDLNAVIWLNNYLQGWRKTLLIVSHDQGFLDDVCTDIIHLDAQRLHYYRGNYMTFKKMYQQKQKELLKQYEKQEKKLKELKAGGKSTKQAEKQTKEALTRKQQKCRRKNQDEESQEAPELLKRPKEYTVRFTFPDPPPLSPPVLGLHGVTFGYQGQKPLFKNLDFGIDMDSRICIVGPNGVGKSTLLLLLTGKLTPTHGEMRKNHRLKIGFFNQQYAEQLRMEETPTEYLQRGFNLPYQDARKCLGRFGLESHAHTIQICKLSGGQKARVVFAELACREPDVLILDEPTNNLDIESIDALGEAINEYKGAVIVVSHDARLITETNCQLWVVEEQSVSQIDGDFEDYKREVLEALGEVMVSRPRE
UniProt Q9NUQ8: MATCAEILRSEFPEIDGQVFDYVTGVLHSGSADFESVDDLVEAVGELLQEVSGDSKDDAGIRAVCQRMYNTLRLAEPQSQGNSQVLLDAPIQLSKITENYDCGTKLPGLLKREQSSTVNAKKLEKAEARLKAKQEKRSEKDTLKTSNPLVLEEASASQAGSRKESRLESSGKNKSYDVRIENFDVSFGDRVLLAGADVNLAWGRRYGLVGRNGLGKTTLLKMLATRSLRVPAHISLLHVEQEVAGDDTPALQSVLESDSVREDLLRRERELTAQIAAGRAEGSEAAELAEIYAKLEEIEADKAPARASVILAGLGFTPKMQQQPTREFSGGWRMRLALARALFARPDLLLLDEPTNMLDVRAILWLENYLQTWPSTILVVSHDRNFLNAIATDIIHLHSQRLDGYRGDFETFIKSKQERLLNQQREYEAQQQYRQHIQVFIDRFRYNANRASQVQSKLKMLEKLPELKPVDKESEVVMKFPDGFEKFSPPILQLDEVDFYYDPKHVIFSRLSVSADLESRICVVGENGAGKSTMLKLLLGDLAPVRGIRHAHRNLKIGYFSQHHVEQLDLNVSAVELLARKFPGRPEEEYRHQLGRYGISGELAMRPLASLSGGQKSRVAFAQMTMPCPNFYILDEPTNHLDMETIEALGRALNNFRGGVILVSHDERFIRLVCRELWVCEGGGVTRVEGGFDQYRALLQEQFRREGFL
UniProt P24752: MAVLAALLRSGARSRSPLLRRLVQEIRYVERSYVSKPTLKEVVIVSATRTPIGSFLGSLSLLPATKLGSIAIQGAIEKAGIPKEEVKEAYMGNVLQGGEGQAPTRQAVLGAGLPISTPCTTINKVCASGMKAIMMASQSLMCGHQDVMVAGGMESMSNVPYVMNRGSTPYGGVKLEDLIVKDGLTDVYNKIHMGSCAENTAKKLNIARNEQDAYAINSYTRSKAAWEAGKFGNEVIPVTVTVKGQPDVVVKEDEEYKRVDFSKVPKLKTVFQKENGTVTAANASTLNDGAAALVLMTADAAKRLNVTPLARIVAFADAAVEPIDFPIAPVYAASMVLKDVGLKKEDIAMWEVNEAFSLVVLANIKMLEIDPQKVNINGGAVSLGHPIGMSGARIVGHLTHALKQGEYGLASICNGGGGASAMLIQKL
UniProt P53396: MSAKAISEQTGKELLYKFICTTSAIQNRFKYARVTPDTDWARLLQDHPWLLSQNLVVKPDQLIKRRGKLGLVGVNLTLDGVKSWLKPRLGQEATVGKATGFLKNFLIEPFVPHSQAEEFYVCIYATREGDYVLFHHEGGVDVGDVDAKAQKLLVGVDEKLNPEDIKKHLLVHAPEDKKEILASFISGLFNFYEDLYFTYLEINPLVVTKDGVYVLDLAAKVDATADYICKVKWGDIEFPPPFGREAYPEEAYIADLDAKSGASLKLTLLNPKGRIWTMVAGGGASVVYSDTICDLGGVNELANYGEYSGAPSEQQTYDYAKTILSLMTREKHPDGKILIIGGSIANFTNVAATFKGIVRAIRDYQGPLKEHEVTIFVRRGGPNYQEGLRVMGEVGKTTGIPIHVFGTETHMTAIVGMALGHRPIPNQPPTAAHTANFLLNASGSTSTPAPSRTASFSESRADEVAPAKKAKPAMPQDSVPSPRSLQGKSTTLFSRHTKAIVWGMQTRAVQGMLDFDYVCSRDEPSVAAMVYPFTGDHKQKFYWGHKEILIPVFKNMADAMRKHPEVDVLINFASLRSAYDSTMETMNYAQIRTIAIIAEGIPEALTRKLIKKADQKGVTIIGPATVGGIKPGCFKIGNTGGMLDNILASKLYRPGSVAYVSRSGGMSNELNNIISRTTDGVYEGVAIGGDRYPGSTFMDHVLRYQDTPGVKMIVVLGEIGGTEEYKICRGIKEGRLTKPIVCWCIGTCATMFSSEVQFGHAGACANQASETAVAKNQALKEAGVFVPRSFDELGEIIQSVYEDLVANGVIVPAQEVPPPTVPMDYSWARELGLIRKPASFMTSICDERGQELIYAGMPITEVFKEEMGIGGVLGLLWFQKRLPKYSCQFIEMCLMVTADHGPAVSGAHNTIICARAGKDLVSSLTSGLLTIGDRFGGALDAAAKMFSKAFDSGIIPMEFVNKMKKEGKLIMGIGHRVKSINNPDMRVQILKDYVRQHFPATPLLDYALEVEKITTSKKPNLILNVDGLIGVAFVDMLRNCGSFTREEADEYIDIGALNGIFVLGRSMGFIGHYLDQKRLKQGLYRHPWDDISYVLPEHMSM
UniProt P42765: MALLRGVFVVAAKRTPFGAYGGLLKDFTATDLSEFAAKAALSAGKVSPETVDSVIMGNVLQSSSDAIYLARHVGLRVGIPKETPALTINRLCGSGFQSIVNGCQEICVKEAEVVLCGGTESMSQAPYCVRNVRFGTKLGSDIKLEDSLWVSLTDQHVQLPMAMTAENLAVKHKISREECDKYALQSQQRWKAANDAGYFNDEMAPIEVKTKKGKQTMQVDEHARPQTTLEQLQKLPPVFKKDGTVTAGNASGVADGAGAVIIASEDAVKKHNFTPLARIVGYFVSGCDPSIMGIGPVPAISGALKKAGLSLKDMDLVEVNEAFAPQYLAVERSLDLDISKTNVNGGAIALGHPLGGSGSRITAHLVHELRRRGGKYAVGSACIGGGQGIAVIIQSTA
UniProt Q9BR61: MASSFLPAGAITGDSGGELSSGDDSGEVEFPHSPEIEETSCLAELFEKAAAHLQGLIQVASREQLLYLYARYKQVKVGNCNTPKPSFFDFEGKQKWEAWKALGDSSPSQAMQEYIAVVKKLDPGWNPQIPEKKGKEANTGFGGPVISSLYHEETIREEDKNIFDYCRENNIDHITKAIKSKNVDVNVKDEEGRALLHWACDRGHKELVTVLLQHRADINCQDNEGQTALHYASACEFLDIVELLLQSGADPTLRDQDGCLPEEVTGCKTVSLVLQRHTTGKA
UniProt P21399: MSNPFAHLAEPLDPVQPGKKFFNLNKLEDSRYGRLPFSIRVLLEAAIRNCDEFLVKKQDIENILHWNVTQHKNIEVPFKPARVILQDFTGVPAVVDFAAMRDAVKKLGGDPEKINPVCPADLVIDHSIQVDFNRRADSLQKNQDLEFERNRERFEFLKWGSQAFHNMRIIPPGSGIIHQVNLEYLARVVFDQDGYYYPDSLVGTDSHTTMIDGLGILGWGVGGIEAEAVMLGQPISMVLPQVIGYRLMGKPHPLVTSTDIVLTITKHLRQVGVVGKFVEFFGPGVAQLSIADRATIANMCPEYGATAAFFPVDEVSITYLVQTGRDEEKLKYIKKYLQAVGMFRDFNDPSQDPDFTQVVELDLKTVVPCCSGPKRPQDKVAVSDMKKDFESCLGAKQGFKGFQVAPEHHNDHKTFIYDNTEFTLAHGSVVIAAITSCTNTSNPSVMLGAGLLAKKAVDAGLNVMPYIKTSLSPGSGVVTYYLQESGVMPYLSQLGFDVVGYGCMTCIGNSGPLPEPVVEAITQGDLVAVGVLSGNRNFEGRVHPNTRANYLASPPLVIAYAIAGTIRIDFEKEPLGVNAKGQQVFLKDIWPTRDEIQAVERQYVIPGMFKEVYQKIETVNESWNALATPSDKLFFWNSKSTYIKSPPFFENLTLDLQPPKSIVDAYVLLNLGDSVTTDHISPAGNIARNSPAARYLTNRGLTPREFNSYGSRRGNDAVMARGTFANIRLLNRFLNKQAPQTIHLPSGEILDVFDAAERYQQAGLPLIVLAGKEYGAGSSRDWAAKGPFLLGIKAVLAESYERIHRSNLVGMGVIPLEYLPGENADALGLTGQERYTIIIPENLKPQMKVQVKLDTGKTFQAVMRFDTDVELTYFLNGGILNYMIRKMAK

Key:
Experiment in all cases: log2 fold change, soluble protein after heating vs DMSO (PISA); higher = thermal stabilisation; K562 lysate, 10 uM; active = over 0.2 and 3.5 SD of the protein, either way, in both replicates (recomputed)
vemurafenib = compound: CCCS(=O)(=O)Nc1ccc(F)c(C(=O)c2c[nH]c3ncc(-c4ccc(Cl)cc4)cc23)c1F [vemurafenib]
How it was run: (§1)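 Following dounce homogenisation of K562 pellets in PBS pH 7.4 with 1 mM MgCl2, crude extract at 1 mg/mL protein was incubated for 30 min with 10 μM compound. Aliquots were then heated for 3 min over 48°C-58°C and pooled, NP-40 was added to 0.5% at 4°C, and soluble protein was recovered as the supernatant at 21,000xg for 90 min. Channel-sum-equalised TMTpro 16plex LC-MS/MS quantified this protein. Each value, from duplicates, is a log-two fold change in thermal stability relative to solvent controls.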

[1] = compound: CCCS(=O)(=O)Nc1ccc(F)c(C(=O)c2c[nH]c3ncc(Cl)cc23)c1F
How it was run: as §1

barasertib = compound: CCN(CCCOc1ccc2c(Nc3cc(CC(=O)Nc4cccc(F)c4)[nH]n3)ncnc2c1)CCOP(=O)(O)O [barasertib]
How it was run: as §1

[2] = compound: CC[C@@H]1C(=O)N(C)c2cnc(Nc3ccc(C(=O)NC4CCN(C)CC4)cc3OC)nc2N1C1CCCC1
How it was run: as §1

volasertib = compound: CC[C@@H]1C(=O)N(C)c2cnc(Nc3ccc(C(=O)N[C@H]4CC[C@H](N5CCN(CC6CC6)CC5)CC4)cc3OC)nc2N1C(C)C [volasertib]
How it was run: as §1

[3] = compound: CCn1c(C(=O)N(C2CC2)C2CC2)cc2c3c(ncn3C)c(Nc3cc(C)n(C)n3)nc21
How it was run: as §1

[4] = compound: CCn1cc(-c2ccnc3[nH]c(-c4cccc(CN(C)C)c4)cc23)c(-c2ccc(NC(=O)N(C)C)cc2)n1
How it was run: as §1

[5] = compound: CN1CCC(CNc2ccc3ncc(-c4cccc(OC(F)(F)F)c4)n3n2)CC1
How it was run: as §1

saracatinib = compound: CN1CCN(CCOc2cc(OC3CCOCC3)c3c(Nc4c(Cl)ccc5c4OCO5)ncnc3c2)CC1 [saracatinib]
How it was run: as §1

sotrastaurin = compound: CN1CCN(c2nc(C3=C(c4c[nH]c5ccccc45)C(=O)NC3=O)c3ccccc3n2)CC1 [sotrastaurin]
How it was run: as §1

alvocidib = compound: CN1CC[C@H](c2c(O)cc(O)c3c(=O)cc(-c4ccccc4Cl)oc23)[C@H](O)C1 [alvocidib]
How it was run: as §1

Tubastatin A = compound: CN1CCc2c(c3ccccc3n2Cc2ccc(C(=O)NO)cc2)C1 [Tubastatin A]
How it was run: as §1

[6] = compound: CNC(=O)C1=CC=CC=C1NC2=NC(=NC=C2Cl)NC3=C(C=C(C=C3)N4CCOCC4)OC
How it was run: as §1

defactinib = compound: CNC(=O)c1ccc(Nc2ncc(C(F)(F)F)c(NCc3nccnc3N(C)S(C)(=O)=O)n2)cc1 [defactinib]
How it was run: as §1

[7] = compound: CNc1nc(-c2ccc3c(N)n[nH]c3c2)cc(N2C[C@@H](C(=O)NC3CCCCC3)CC[C@H]2C)n1
How it was run: as §1

encorafenib = compound: COC(=O)N[C@@H](C)CNc1nccc(-c2cn(C(C)C)nc2-c2cc(Cl)cc(NS(C)(=O)=O)c2F)n1 [encorafenib]
How it was run: as §1

[8] = compound: COC(=O)[C@H](CCSC)NC(=O)C1=C(C=C(C=C1)NC[C@H](CS)N)C2=CC=CC=C2
How it was run: as §1

alisertib = compound: COc1cc(Nc2ncc3c(n2)-c2ccc(Cl)cc2C(c2c(F)cccc2OC)=NC3)ccc1C(=O)O [alisertib]
How it was run: as §1

[9] = compound: COc1cc2nc(-c3cc(F)ccc3O)nc(N[C@@H]3CNC[C@H]3C(C)(C)O)c2cc1OC
How it was run: as §1

gefitinib = compound: COc1cc2ncnc(Nc3ccc(F)c(Cl)c3)c2cc1OCCCN1CCOCC1 [gefitinib]
How it was run: as §1

Measured: log2 fold change

ACAD9 (UniProt Q9H845)
inactive: vemurafenib -0.044 | [1] 0 | barasertib 0.01 | [2] -0.015 | volasertib 0.013 | [3] -0.015 | [4] -0.053 | [5] 0.019 | saracatinib -0.03 | sotrastaurin -0.016 | alvocidib -0.036 | Tubastatin A 0.025 | [6] -0.018 | defactinib -0.002 | [7] -0.041 | encorafenib 0.022 | [8] -0.015 | alisertib -0.019 | [9] 0.024 | gefitinib 0.022

ACIN1 (UniProt E7EQT4)
inactive: vemurafenib -0.057 | [1] 0.026 | barasertib -0.021 | [2] -0.011 | volasertib 0.045 | [3] 0.048 | [4] -0.321 | [5] 0.127 | saracatinib -0.016 | sotrastaurin 0.047 | alvocidib -0.093 | Tubastatin A 0.095 | [6] 0.003 | defactinib -0.038 | [7] 0.06 | encorafenib 0.022 | [8] -0.033 | alisertib -0.039 | [9] -0.011 | gefitinib 0.051

ABCB10 (UniProt Q9NRK6)
inactive: vemurafenib 0.034 | [1] -0.013 | barasertib -0.029 | [2] -0.013 | volasertib 0.022 | [3] 0.023 | [4] -0.082 | [5] -0.082 | saracatinib -0.014 | sotrastaurin 0.046 | alvocidib -0.023 | Tubastatin A 0.074 | [6] 0.068 | defactinib 0.022 | [7] -0.038 | encorafenib -0.003 | [8] 0.019 | alisertib 0.007 | [9] -0.032 | gefitinib 0.021

A0A096LPI6, A0A096LPI6
inactive: vemurafenib 0.002 | [1] 0.021 | barasertib 0.018 | [2] 0.003 | volasertib 0.026 | [3] -0.005 | [4] 0.091 | [5] -0.047 | saracatinib -0.01 | sotrastaurin -0.052 | alvocidib 0.005 | Tubastatin A 0.055 | [6] 0.043 | defactinib -0.016 | [7] 0.068 | encorafenib -0.038 | [8] 0.012 | alisertib -0.011 | [9] -0.03 | gefitinib 0.004

AASDHPPT (UniProt Q9NRN7)
inactive: vemurafenib 0.007 | [1] 0 | barasertib -0.025 | [2] 0.008 | volasertib -0.009 | [3] -0.003 | [4] -0.055 | [5] 0.017 | saracatinib -0.018 | sotrastaurin -0.023 | alvocidib 0.007 | Tubastatin A 0.02 | [6] -0.03 | defactinib -0.02 | [7] -0.021 | encorafenib -0.022 | [8] -0.147 | alisertib 0.025 | [9] -0.01 | gefitinib -0.012

ACADSB (UniProt P45954)
inactive: vemurafenib 0.048 | [1] 0.018 | barasertib 0.024 | [2] 0.017 | volasertib -0.03 | [3] 0.015 | [4] 0.011 | [5] -0.012 | saracatinib -0.185 | sotrastaurin 0.031 | alvocidib 0.026 | Tubastatin A -0.005 | [6] -0.035 | defactinib 0.077 | [7] 0.082 | encorafenib 0.027 | [8] 0.068 | alisertib 0.023 | [9] -0.047 | gefitinib 0

ABT1 (UniProt Q9ULW3)
inactive: vemurafenib 0.191 | [1] 0.015 | barasertib -0.042 | [2] 0.007 | volasertib -0.046 | [3] 0.004 | [4] -0.002 | [5] -0.017 | saracatinib 0.021 | sotrastaurin 0.105 | alvocidib -0.01 | Tubastatin A -0.024 | [6] -0.118 | defactinib -0.015 | [7] 0.013 | encorafenib -0.016 | [8] -0.003 | alisertib 0.012 | [9] -0.113 | gefitinib -0.002

ABCF1 (UniProt Q8NE71)
inactive: vemurafenib 0.036 | [1] 0.018 | barasertib 0.016 | [2] -0.056 | volasertib -0.011 | [3] 0.011 | [4] -0.033 | [5] -0.017 | saracatinib 0.005 | sotrastaurin 0.042 | alvocidib -0.003 | Tubastatin A -0.009 | [6] 0.006 | defactinib 0.001 | [7] -0.011 | encorafenib -0.012 | [8] 0.053 | alisertib 0.009 | [9] 0.002 | gefitinib -0.023

ABCF3 (UniProt Q9NUQ8)
inactive: vemurafenib 0.013 | [1] 0.037 | barasertib 0.03 | [2] -0.079 | volasertib -0.099 | [3] 0.044 | [4] 0.015 | [5] -0.059 | saracatinib -0.006 | sotrastaurin 0.033 | alvocidib 0.013 | Tubastatin A -0.172 | [6] 0.029 | defactinib -0.01 | [7] -0.01 | encorafenib -0.031 | [8] 0.11 | alisertib 0.004 | [9] -0.003 | gefitinib -0.006

2 records picked at random from those above:
ABCF3 (UniProt Q9NUQ8)
inactive: vemurafenib 0.013 | [1] 0.037 | barasertib 0.03 | [2] -0.079 | volasertib -0.099 | [3] 0.044 | [4] 0.015 | [5] -0.059 | saracatinib -0.006 | sotrastaurin 0.033 | alvocidib 0.013 | Tubastatin A -0.172 | [6] 0.029 | defactinib -0.01 | [7] -0.01 | encorafenib -0.031 | [8] 0.11 | alisertib 0.004 | [9] -0.003 | gefitinib -0.006

A0A096LPI6, A0A096LPI6
inactive: vemurafenib 0.002 | [1] 0.021 | barasertib 0.018 | [2] 0.003 | volasertib 0.026 | [3] -0.005 | [4] 0.091 | [5] -0.047 | saracatinib -0.01 | sotrastaurin -0.052 | alvocidib 0.005 | Tubastatin A 0.055 | [6] 0.043 | defactinib -0.016 | [7] 0.068 | encorafenib -0.038 | [8] 0.012 | alisertib -0.011 | [9] -0.03 | gefitinib 0.004

(continued)

ACAT1 (UniProt P24752)
inactive: vemurafenib 0 | [1] -0.016 | barasertib 0.006 | [2] 0.033 | volasertib 0.019 | [3] 0.003 | [4] -0.038 | [5] -0.006 | saracatinib 0.011 | sotrastaurin 0.007 | alvocidib 0.018 | Tubastatin A -0.136 | [6] 0.001 | defactinib -0.027 | [7] 0.05 | encorafenib -0.033 | [8] 0.04 | alisertib 0 | [9] -0.006 | gefitinib -0.06

ACIN1 isoform 5 (UniProt Q9UKV3)
inactive: vemurafenib 0.014 | [1] 0.024 | barasertib 0.009 | [2] -0.016 | volasertib 0 | [3] -0.018 | [4] 0.067 | [5] -0.01 | saracatinib 0.006 | sotrastaurin 0.014 | alvocidib -0.038 | Tubastatin A 0.039 | [6] -0.034 | defactinib -0.009 | [7] 0.053 | encorafenib -0.004 | [8] -0.01 | alisertib 0.032 | [9] -0.003 | gefitinib 0.001

ACLY (UniProt P53396)
inactive: vemurafenib 0.017 | [1] 0.01 | barasertib -0.003 | [2] -0.035 | volasertib -0.031 | [3] -0.003 | [4] -0.049 | [5] 0.026 | saracatinib -0.007 | sotrastaurin 0.016 | alvocidib 0.022 | Tubastatin A 0.078 | [6] -0.006 | defactinib -0.036 | [7] 0.01 | encorafenib -0.043 | [8] 0.133 | alisertib 0.016 | [9] 0.003 | gefitinib 0.004

ACAA2 (UniProt P42765)
inactive: vemurafenib -0.025 | [1] -0.002 | barasertib -0.007 | [2] 0.057 | volasertib 0.021 | [3] -0.021 | [4] -0.018 | [5] 0.039 | saracatinib 0 | sotrastaurin -0.001 | alvocidib 0.025 | Tubastatin A -0.012 | [6] 0.011 | defactinib 0.028 | [7] 0.059 | encorafenib -0.01 | [8] 0.013 | alisertib -0.002 | [9] 0.002 | gefitinib -0.012

ACBD6 (UniProt Q9BR61)
inactive: vemurafenib 0.028 | [1] 0.035 | barasertib -0.006 | [2] -0.025 | volasertib -0.082 | [3] 0.013 | [4] -0.009 | [5] 0.006 | saracatinib -0.015 | sotrastaurin 0.014 | alvocidib -0.009 | Tubastatin A -0.15 | [6] 0.056 | defactinib -0.005 | [7] 0.016 | encorafenib -0.003 | [8] 0.051 | alisertib -0.006 | [9] 0.016 | gefitinib -0.022

ACO1 (UniProt P21399)
inactive: vemurafenib -0.011 | [1] 0.024 | barasertib 0.01 | [2] -0.028 | volasertib -0.031 | [3] 0.033 | [4] -0.064 | [5] 0.006 | saracatinib -0.011 | sotrastaurin 0.009 | alvocidib 0.021 | Tubastatin A 0.019 | [6] 0.006 | defactinib -0.006 | [7] -0.048 | encorafenib 0.005 | [8] -0.05 | alisertib -0.001 | [9] 0.001 | gefitinib -0.008
